Reference: patent US20100143385A1, “METHODS FOR REDUCING PHOSPHATE ABSORPTION” (priority 2006, published 2010)

Test system: chicks fed a phytic phosphorous basal diet
Test: chicken model: chicks fed Pi deficient phytic phosphorous diet with added 1α-hydroxyvitamin D3
Type: in vivo, Single Comb White Leghorn chicks
From the text: Animal model: The dietary sources of inorganic phosphate (Pi) are largely mineral phosphates or phosphate from animal tissues and products (milk and eggs). These Pi sources are readily available for absorption by monogastric animals. In diseases where the uptake of phosphorous requires intervention, patients are usually required to avoid these foods and take Pi binders. While this is a useful strategy in reducing the absorption of Pi, patients taking alternative food (e.g., plant based foods) during the treatment of diseases such as end stage renal failure is exposed to another source of phosphate that may serve as a pool of Pi for absorption. Phytic phosphorous (PP) represents 70-80% of all phosphorous in plant based foods. PP is normally unavailable for absorption in monogastric animals when consumed and is excreted with the fecal waste.
Providing 1α-hydroxyvitamin D3 to the chickens fed the Pi deficient diet raised the serum phosphate level. Therefore, this model can be used to test whether anti-phytic acid antibodies would be effective in reducing increased serum phosphate levels from a phytic origin caused by 1α-hydroxyvitamin D3.
Animal experiment: The model used in this study was described by Biehl and Baker, J. Nutr. 1997, 127:2054-2059 with the exception of antibodies to phytic acid. […]

Compound: C=C1/C(=C\C=C2/CCC[C@]3(C)[C@@H]([C@H](C)CCCC(C)C)CC[C@@H]23)C[C@@H](O)C[C@@H]1O [1α-hydroxyvitamin D3]
- Average gain (body weight) (chicks, Pi deficient diet, day 1 to day 10, 1α-hydroxyvitamin D3 20 μg/kg diet alone, or plus antibody 1 g/kg diet): 49.7 g
- increase of body weight gain (relative to Pi deficient negative control diet): 25%
